# In PMC7063047:
# Protein sequences, listed by entry. Tags and fused reporters are not part of them. Lines headed by an entry give the natural chain unless they say otherwise; changes in a name come on top. Chains listed by the source or under a name are the forms on record and can include a tag or linker.
# endogenous USP9X (Q93008-3, form named): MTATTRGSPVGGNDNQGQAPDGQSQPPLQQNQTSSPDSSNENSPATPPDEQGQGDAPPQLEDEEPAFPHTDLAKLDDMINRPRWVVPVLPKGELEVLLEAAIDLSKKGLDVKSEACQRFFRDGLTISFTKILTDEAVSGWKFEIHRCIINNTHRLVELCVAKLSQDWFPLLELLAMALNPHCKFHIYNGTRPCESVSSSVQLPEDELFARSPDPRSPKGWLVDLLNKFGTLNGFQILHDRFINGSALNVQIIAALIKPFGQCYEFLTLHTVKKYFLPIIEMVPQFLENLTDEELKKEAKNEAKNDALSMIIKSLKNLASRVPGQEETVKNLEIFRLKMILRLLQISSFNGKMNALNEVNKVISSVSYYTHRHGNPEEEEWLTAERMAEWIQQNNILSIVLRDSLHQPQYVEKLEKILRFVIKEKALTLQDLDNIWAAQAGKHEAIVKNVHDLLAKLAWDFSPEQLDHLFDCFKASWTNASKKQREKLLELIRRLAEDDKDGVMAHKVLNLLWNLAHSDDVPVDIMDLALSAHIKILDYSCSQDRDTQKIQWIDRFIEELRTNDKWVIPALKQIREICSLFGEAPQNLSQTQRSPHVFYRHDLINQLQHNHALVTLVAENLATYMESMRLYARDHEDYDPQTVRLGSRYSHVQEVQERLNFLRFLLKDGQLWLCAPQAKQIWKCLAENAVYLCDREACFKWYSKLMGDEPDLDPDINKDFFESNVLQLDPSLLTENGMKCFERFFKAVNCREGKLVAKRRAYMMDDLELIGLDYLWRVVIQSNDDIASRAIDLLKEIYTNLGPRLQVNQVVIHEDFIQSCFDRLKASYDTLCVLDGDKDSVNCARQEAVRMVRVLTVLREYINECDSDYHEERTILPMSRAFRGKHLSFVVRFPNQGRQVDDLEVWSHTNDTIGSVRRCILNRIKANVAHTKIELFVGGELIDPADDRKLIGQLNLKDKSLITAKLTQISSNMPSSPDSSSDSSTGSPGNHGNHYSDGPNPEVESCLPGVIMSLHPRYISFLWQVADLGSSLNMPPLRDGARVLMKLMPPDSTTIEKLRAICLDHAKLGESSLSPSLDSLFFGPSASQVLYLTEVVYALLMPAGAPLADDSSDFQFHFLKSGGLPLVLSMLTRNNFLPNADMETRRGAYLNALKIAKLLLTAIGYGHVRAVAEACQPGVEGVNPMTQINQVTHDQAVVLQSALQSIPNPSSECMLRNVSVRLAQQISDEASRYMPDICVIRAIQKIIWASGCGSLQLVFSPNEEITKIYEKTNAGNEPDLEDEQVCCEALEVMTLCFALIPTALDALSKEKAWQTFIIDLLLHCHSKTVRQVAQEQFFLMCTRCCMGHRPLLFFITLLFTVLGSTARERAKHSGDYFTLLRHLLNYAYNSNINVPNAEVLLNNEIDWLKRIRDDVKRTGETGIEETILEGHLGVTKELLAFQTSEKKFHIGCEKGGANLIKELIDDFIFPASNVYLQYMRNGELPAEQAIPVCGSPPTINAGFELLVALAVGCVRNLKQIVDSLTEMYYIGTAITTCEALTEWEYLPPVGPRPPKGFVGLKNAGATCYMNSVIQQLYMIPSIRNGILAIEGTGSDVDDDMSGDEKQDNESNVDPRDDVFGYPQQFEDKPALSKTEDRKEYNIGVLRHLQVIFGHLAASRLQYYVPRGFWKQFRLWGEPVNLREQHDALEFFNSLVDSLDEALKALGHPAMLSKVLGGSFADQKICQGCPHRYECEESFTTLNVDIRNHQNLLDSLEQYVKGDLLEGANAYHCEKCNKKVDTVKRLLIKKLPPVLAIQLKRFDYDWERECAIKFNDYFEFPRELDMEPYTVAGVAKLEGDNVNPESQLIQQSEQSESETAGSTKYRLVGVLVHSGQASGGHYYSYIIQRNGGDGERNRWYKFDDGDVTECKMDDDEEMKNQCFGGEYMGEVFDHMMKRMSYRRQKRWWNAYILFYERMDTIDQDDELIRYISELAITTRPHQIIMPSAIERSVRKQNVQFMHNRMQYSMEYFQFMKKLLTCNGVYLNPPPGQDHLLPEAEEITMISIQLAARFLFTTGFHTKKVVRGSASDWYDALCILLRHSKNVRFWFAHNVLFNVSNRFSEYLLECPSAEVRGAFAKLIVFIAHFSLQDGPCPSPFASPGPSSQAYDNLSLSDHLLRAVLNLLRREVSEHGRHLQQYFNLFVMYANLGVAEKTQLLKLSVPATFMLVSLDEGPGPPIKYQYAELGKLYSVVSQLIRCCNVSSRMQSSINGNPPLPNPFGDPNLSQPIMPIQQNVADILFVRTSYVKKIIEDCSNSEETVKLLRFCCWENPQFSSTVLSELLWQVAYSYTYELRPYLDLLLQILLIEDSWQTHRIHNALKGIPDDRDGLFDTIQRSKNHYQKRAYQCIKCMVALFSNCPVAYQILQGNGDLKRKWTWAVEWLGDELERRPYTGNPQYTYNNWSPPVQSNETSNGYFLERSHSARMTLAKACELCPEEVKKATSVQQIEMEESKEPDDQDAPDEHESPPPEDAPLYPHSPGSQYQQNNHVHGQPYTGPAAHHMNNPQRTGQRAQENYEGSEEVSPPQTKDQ
# These are yes or no findings as the source states them, for the method shown. Binding seen in cells or lysates may run through a third protein. These calls come from enrichment with a bait or labelling near it, and not all partners need be listed. Where a sequence is shown, tags or fusion partners need not be part of it.
# Molecular target: T1, FLAG-tagged CDC14B (human) (UniProt O60729)
# T1 sequence: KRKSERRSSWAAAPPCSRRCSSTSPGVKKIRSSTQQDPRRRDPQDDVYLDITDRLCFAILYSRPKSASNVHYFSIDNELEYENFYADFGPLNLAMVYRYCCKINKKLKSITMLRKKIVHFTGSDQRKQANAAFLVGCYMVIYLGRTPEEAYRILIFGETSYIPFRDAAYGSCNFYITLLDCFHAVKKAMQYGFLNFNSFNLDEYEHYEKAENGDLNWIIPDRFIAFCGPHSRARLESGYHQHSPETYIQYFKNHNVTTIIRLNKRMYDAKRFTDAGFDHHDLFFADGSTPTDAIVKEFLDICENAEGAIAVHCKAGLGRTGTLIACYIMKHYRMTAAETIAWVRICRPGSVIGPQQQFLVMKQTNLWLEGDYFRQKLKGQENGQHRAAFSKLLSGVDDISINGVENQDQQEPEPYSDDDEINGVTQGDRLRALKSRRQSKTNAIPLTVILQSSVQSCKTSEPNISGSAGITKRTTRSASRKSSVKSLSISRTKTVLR
# Experiment: affinity purification with mass spectrometry; CDC14B interactomes from unsynchronized and G2/M-enriched cells compared; affinity purification from lysate (Tris/HCl pH 7.5 50 mM, NaCl 150 mM, NP40 0.1%), LC-MS/MS
substance,measurement,value
endogenous USP9X (from UniProt Q93008-3 1-2570) (enzyme),binding,binds
